Assay results from the supplement of paper PMC10626197.

Tested on: MCF7
Test: cell viability relative to DMSO control (raw); higher = more viable cells
Conditions: exposure time 72 h
Description: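 MCF7 cells, 1000 cells/well in 384-well plates, treated with 6x6 dose matrices of drug pairs (1:3 serial dilutions, DMSO as lowest dose) for 72 h at 37 °C. Viability read by CellTiter-Glo luminescence, 3 biological replicates. Normalised viability sets 0% at the highest doxorubicin dose and 100% at the 0,0 µM control per combination.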

CC[C@]1(O)C[C@H]2CN(CCc3c([nH]c4ccccc34)[C@@](C(=O)OC)(c3cc4c(cc3OC)N(C=O)[C@H]3[C@@](O)(C(=O)OC)[C@H](OC(C)=O)[C@]5(CC)C=CCN6CC[C@]43[C@@H]65)C2)C1 [Vincristine] + CN1CCN(C2=Nc3cc(Cl)ccc3Nc3ccccc32)CC1 [Clozapine]
cell viability [%]
Conditions	drug 2 concentration 0 µM	drug 2 concentration 0.123457 µM	drug 2 concentration 0.37037 µM	drug 2 concentration 1.11111 µM	drug 2 concentration 3.33333 µM	drug 2 concentration 10 µM
drug 1 concentration 0.0037037 µM	75.9	77.6	76.4	78	77.2	79.2
drug 1 concentration 0.0111111 µM	78.5	81.5	83.5	87.1	81.4	83.6
drug 1 concentration 0.0333333 µM	78.4	84.1	82.6	83.8	88.7	78.1
drug 1 concentration 0.1 µM	77.5	80	79.2	77.2	77.5	70.2
drug 1 concentration 0.3 µM	75.8	75.9	80.6	76.6	74.8	64.3

O=C(c1ccc(OCCN2CCCCC2)cc1)c1c(-c2ccc(O)cc2)sc2cc(O)ccc12 [Raloxifene] + C[C@]12CC[C@@H]3c4ccc(O)cc4CC[C@H]3[C@@H]1CC[C@@H]2O [Estradiol]
cell viability [%]
Conditions	drug 2 concentration 0 µM	drug 2 concentration 0.123457 µM	drug 2 concentration 0.37037 µM	drug 2 concentration 1.11111 µM	drug 2 concentration 3.33333 µM	drug 2 concentration 10 µM
drug 1 concentration 0.0617284 µM	104	101	94.2	93.3	96.5	98.6
drug 1 concentration 0.185185 µM	88.5	93.1	90.1	97.4	88.9	89.8
drug 1 concentration 0.555556 µM	97.7	96.8	94.2	95.7	106	96.9
drug 1 concentration 1.66667 µM	92.8	102	97.7	99.2	100	97.5
drug 1 concentration 5 µM	92.3	104	111	109	123	108

Cc1ccc(Nc2nccc(N(C)c3ccc4c(C)n(C)nc4c3)n2)cc1S(N)(=O)=O [Pazopanib] + C[C@]12C=CC(=O)C=C1CC[C@@H]1[C@@H]2[C@@H](O)C[C@@]2(C)[C@H]1CC[C@]2(O)C(=O)CO [Prednisolone]
cell viability [%]
Conditions	drug 2 concentration 0 µM	drug 2 concentration 0.0617284 µM	drug 2 concentration 0.185185 µM	drug 2 concentration 0.555556 µM	drug 2 concentration 1.66667 µM	drug 2 concentration 5 µM
drug 1 concentration 0.617284 µM	87.9	90.6	84.5	89.9	92.4	95.7
drug 1 concentration 1.85185 µM	85.9	79.7	82.7	81.7	82.96	92
drug 1 concentration 5.55556 µM	76	80.5	87	81.4	83.6	106
drug 1 concentration 16.6667 µM	46.7	45.6	48.2	53.2	46.6	49.6
drug 1 concentration 50 µM	61.9	60.3	58.2	55.8	60.3	57.2

Cc1ccc(NC(=O)c2ccc(CN3CCN(C)CC3)cc2)cc1Nc1nccc(-c2cccnc2)n1 [Imatinib] + CN1CCN(CCCN2c3ccccc3Sc3ccc(C(F)(F)F)cc32)CC1 [Trifluoperazine 2HCl]
cell viability [%]
Conditions	drug 2 concentration 0 µM	drug 2 concentration 0.185185 µM	drug 2 concentration 0.555556 µM	drug 2 concentration 1.66667 µM	drug 2 concentration 5 µM	drug 2 concentration 15 µM
drug 1 concentration 0.123457 µM	94.6	83.7	87.4	83.6	57.8	0.412
drug 1 concentration 0.37037 µM	82.2	77.4	79.8	74.5	25.9	0.623
drug 1 concentration 1.11111 µM	88.8	89.6	84.3	82.2	63.7	0.559
drug 1 concentration 3.33333 µM	86.5	84.5	80.7	86.6	5.29	0.263
drug 1 concentration 10 µM	88.2	90.9	79.3	77.2	48.1	0.421

C/C(=C\c1csc(C)n1)[C@@H]1C[C@@H]2O[C@]2(C)CCC[C@H](C)[C@H](O)[C@@H](C)C(=O)C(C)(C)[C@@H](O)CC(=O)N1 [ixabepilone] + COc1cc(Nc2ncc3c(n2)-c2ccc(Cl)cc2C(c2c(F)cccc2OC)=NC3)ccc1C(=O)O [Alisertib]
cell viability [%]
Conditions	drug 2 concentration 0 µM	drug 2 concentration 0.0617284 µM	drug 2 concentration 0.185185 µM	drug 2 concentration 0.555556 µM	drug 2 concentration 1.66667 µM	drug 2 concentration 5 µM
drug 1 concentration 0.00185185 µM	101	102	109	105	108.8	91.4
drug 1 concentration 0.00555556 µM	105	107.2	99.7	105	99.6	96.7
drug 1 concentration 0.0166667 µM	107	110	105	104	104	97.9
drug 1 concentration 0.05 µM	113	116	110	105	97.4	96.4
drug 1 concentration 0.15 µM	126	121	115	106	105	99.5

Some well-known active drugs show little effect in this data set, so a weak value is uncertain.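 MCF7, a breast cancer cell line, was exposed to pairs of drugs across a grid of doses. Every plate had solvent-only (DMSO) wells as the untreated reference and a doxorubicin series as the total-kill control. No hit threshold is applied to these viability readings.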
